Taken from: PubChem BioAssay AID1224830 (NIAID, 2016)
Purpose: 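Genes whose knock-down alters the TNF-alpha reporter response to LPS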 (primary screen). Cell system: human THP-1 monocytic leukaemia cells, TNF dual-luciferase reporter clone, PMA-differentiated to macrophage-like cells. Knock-down reagent: siRNA pool against human genes, 50 nM. Duration: LPS for 4 h, given about 3 days after siRNA transfection. Conditions: bacterial LPS (TLR4 ligand), 10 ng/ml. Detection: 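TNF firefly reporter luminescence divided by renilla, normalised to the plate median, then turned into a robust z-score for each replicate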. Reading the numbers: TNF reporter robust z-score: higher = stronger TNF reporter response to LPS. Call rule: 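a well is active when its z-score exceeds 2.8 or falls below -1.5; control wells carry no call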.
This is an unselected part of about 18,000 reagents tested. Of all reagents, about 2,900 (16%) are marked active. 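Calls are made per well; low scores hint the gene aids the LPS response, high scores that it dampens it.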 Unmarked entries are inactive. Repeated entries: four replicate wells of each siRNA pool.

gene symbol | TNF reporter robust z-score
SLC5A7 | -0.51
SLC5A7 | 0.89
SLC5A7 | -0.26
SLC5A7 | 0.79
ZNF621 | 0.83
ZNF621 | 1.78
ZNF621 | -0.34
ZNF621 | 3.18 (active)
SYNJ2 | 0.39
SYNJ2 | 1.22
SYNJ2 | 0.3
SYNJ2 | 1.79
RASSF10 | 1
RASSF10 | 0.91
RASSF10 | 0.4
RASSF10 | 1.3
BLK | -1.2
BLK | 1.01
BLK | -0.09
PWP2 | 0.56
PWP2 | 1.43
PWP2 | 2.41
PWP2 | 1.52
PRRC1 | 0.3
PRRC1 | 1.7
PRRC1 | -0.1
PRRC1 | 1.63
TRIM62 | 1.67
TRIM62 | 0.42
TRIM62 | 0.52
TRIM62 | 0.8
SOHLH1 | 1.65
SOHLH1 | 2.68
SOHLH1 | 3.86 (active)
SOHLH1 | 2.43
NIM1K | -0.24
NIM1K | 0.6
NIM1K | -0.77
NIM1K | -0.5
SIX3 | 0.19
SIX3 | -0.25
SIX3 | -0.67
SIX3 | -0.31
NCKAP1L | 0.79
NCKAP1L | 0.35
NCKAP1L | 0.71
NCKAP1L | 0.99
CHAD | 0.87
CHAD | -0.24
CHAD | -0.14
CHAD | 0.79
FOXJ1 | -0.07
FOXJ1 | 0.84
FOXJ1 | 0.9
FOXJ1 | 2.73
CSRP3 | 0.06
CSRP3 | 0.3
CSRP3 | 0.55
CSRP3 | 0.13
DCAF4L1 | -0.4
DCAF4L1 | 0.31
DCAF4L1 | -0.86
DCAF4L1 | -0.38
CHD8 | 3.26 (active)
CHD8 | 3.7 (active)
CHD8 | 1.83
CHD8 | 2.55
PPP1R36 | -0.44
PPP1R36 | -0.75
PPP1R36 | -1.26
PPP1R36 | -0.38
MRPS9 | 0.47
MRPS9 | 0.39
MRPS9 | -0.66
MRPS9 | 0.17

Part of the list above in another layout.
{"gene symbol":"CHD8","TNF reporter robust z-score":"3.7 (active)"}
{"gene symbol":"CHD8","TNF reporter robust z-score":1.83}
{"gene symbol":"CHD8","TNF reporter robust z-score":2.55}
{"gene symbol":"PPP1R36","TNF reporter robust z-score":-0.44}
{"gene symbol":"PPP1R36","TNF reporter robust z-score":-0.75}
{"gene symbol":"PPP1R36","TNF reporter robust z-score":-1.26}
{"gene symbol":"PPP1R36","TNF reporter robust z-score":-0.38}
{"gene symbol":"MRPS9","TNF reporter robust z-score":0.47}
{"gene symbol":"MRPS9","TNF reporter robust z-score":0.39}
{"gene symbol":"MRPS9","TNF reporter robust z-score":-0.66}
